Measurements reported in PubChem BioAssay AID652259 (Drosophila RNAi Screening Center, 2013)

Assay: 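Knock-downs that push a Wingless-driven reporter up or down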 (primary screen)
Cell system: Drosophila clone 8 imaginal disc epithelial cells
Reagents: long dsRNA against Drosophila genes
Treatment: pathway stimulated by co-transfected Wingless expression plasmid
Detection: 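Firefly luciferase from a tcf-site Wingless reporter, measured alongside co-transfected Renilla luciferase that tracks transfection; pathway stimulated by a Wingless plasmid; the firefly-to-Renilla ratio is not deposited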
Scale: firefly reporter light: higher = more Wg reporter light, before normalisation; Renilla control light: higher = more transfected or surviving cells
Hit rule: 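a knock-down is a candidate when at least two out of four statistical tests show it departing from its plate mean; one test alone signals a weak candidate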
Meaning of the calls: active = candidate regulator (raises or lowers reporter); inactive = not a candidate
In all, the deposit lists about 22,000 reagents; shown is an unselected part of those that have a named target and a result. Of all reagents, 233 (1.1%) got an active call. 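Light values are raw, unnormalised plate reads; the ratio scores behind the reporter calls were not deposited.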 Not stated in the record: the amount of reagent, the time to read-out, the dose of the treatment.

For Cp7Fb (Chorion protein b at 7F) [DRSC18034], the values are firefly reporter light, replicate 1 = 19200; Renilla control light, replicate 1 = 8272; inactive.
Depletion of CG4073 [DRSC15542] came out at: firefly reporter light, replicate 1 = 18385; Renilla control light, replicate 1 = 4262; inactive.
Silencing of meigo (medial glomeruli) [DRSC15877] gave: firefly reporter light, replicate 1 = 14453; Renilla control light, replicate 1 = 4838; inactive.
Against Sting [DRSC06615], the values are firefly reporter light, replicate 1 = 3531; firefly reporter light, replicate 2 = 11576; Renilla control light, replicate 1 = 946; Renilla control light, replicate 2 = 4741; inactive.

Laid out differently: entries from further up
target gene | amplicon | firefly reporter light, replicate 1 | firefly reporter light, replicate 2 | Renilla control light, replicate 1 | Renilla control light, replicate 2 | call
CG4073 | DRSC15542 | 18385 | – | 4262 | – | inactive
meigo (medial glomeruli) | DRSC15877 | 14453 | – | 4838 | – | inactive

The list goes on:
Against Tak1 (TGF-beta activated kinase 1) [DRSC20390], the entry reads firefly reporter light, replicate 1 = 3856; Renilla control light, replicate 1 = 1421; inactive.
Tak1 (TGF-beta activated kinase 1) [DRSC20561] gave firefly reporter light, replicate 1 = 22154; Renilla control light, replicate 1 = 9348; inactive.
Silencing of Tak1 (TGF-beta activated kinase 1) [DRSC20562] resulted in: firefly reporter light, replicate 1 = 32193; Renilla control light, replicate 1 = 15897; inactive.
Knock-down of LS2 (Large Subunit 2) [DRSC04340] resulted in: firefly reporter light, replicate 1 = 2936; firefly reporter light, replicate 2 = 5592; Renilla control light, replicate 1 = 348; Renilla control light, replicate 2 = 2251; inactive.
Knock-down of CG15599 [DRSC19668] came out at: firefly reporter light, replicate 1 = 14172; Renilla control light, replicate 1 = 7505; inactive.
Depletion of Pex19 (Peroxin 19) [DRSC02839] gave: firefly reporter light, replicate 1 = 8444; Renilla control light, replicate 1 = 3344; inactive.
With knock-down of DNAlig3 (DNA ligase 3) [DRSC15201], the record shows firefly reporter light, replicate 1 = 20924; Renilla control light, replicate 1 = 4051; inactive.
After knock-down of l(2)k05911 (lethal (2) k05911) [DRSC02523], the record shows firefly reporter light, replicate 1 = 4502; Renilla control light, replicate 1 = 1336; inactive.
